In paper PMC7862700 one finds binding signal data, which are given here for 55 sequences.

Chains of the proteins cited; added tags and fusions are not shown. Lines headed by an entry give the natural chain unless they say otherwise; changes in a name come on top.
UniProt P41161: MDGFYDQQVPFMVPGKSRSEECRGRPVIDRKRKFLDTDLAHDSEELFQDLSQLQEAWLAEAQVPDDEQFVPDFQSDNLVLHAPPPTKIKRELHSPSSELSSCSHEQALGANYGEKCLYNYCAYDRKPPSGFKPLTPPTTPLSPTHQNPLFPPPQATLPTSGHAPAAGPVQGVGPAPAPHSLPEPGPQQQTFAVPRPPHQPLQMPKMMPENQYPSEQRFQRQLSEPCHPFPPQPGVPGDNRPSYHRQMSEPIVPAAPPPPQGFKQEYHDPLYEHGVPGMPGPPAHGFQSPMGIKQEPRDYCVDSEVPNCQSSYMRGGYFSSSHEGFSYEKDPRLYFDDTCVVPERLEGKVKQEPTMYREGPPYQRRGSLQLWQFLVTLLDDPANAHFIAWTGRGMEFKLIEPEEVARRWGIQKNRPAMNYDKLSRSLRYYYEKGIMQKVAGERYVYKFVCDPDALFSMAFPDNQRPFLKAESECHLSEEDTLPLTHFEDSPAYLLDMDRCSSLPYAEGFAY
UniProt Q01892: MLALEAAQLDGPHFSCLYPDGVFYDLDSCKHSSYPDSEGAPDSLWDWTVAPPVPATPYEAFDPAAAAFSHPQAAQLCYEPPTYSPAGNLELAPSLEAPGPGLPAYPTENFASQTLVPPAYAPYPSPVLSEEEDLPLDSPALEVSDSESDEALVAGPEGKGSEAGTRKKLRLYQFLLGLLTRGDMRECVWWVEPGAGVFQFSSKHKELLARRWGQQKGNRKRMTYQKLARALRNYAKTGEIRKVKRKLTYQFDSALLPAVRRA
UniProt Q99607: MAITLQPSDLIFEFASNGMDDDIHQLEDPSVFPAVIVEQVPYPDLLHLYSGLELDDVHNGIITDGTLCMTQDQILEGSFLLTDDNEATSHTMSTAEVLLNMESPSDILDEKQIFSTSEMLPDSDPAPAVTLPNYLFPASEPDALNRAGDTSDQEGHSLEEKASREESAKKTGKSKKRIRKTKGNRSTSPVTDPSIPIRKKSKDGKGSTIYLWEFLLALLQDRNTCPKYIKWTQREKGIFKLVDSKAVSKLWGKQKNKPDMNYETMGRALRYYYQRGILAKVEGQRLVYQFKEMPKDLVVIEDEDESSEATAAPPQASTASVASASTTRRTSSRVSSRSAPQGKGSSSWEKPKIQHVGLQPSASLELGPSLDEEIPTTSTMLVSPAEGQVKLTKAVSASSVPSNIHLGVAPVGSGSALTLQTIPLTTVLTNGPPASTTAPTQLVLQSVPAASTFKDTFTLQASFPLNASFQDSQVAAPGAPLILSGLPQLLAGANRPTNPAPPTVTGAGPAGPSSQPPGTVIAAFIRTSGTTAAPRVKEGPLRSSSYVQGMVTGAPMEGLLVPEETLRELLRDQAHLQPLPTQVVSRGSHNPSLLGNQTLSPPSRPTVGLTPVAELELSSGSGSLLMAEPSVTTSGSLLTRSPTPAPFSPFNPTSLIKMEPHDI

The entries are a selection whose mix differs from that of the whole data set. At the low end of the ranking, values are background and their order means little.

Experiment in all cases: DAPPL (digital affinity profiling via proximity ligation, sequencing)
Holding throughout (settings): 10 mM Tris-HCl pH 7.5, 50 mM NaCl, 1 mM DTT, 4% glycerol, room temperature, 30 min; GST-TFs on glutathione beads, 16-mer random dsDNA library, 0.1% …; high values mean tight binding; double strand, one strand shown; scale: fold enrichment (6-mer frequency, TF over GST control)

In experiment [1] the target is T1, FLI1 (UniProt Q01543).
T1 sequence: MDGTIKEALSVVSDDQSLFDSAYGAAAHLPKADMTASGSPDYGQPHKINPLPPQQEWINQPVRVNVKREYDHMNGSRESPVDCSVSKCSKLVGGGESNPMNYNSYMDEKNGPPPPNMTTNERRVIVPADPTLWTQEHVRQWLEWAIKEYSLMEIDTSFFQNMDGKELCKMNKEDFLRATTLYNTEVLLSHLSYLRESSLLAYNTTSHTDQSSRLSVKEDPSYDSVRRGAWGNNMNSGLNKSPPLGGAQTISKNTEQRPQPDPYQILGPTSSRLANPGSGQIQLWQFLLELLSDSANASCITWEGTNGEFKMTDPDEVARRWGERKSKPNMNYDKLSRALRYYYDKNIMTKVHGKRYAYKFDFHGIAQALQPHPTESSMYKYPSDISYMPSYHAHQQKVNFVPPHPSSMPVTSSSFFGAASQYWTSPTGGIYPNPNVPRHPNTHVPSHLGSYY

Experiment [2] concerns the target ETV5 (UniProt P41161).
Experiment [3] addresses T2, ETV3L (UniProt Q6ZN32).
T2 sequence: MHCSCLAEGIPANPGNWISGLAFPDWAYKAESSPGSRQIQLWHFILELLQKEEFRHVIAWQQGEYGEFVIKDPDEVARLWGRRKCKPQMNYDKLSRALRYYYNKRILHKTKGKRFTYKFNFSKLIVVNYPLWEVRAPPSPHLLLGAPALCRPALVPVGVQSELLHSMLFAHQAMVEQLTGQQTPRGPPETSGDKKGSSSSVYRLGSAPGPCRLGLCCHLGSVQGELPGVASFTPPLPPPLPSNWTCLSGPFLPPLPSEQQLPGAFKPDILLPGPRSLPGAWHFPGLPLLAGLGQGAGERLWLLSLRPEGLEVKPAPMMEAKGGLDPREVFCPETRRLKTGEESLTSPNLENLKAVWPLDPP

Experiment [4] has as its target T3, EHF (UniProt Q9NZC4).
T3 sequence: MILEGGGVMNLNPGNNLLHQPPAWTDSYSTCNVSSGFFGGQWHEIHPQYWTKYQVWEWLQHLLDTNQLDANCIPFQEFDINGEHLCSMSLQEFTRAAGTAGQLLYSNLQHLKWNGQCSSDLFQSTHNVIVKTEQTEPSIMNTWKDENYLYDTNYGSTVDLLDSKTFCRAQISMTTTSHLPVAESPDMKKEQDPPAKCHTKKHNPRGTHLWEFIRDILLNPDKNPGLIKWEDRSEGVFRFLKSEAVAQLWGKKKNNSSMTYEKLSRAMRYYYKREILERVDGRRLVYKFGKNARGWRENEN

For experiment [5], the target named is SPIB (UniProt Q01892).
For experiment [6], the target named is T4, ETV2 (UniProt O00321).
T4 sequence: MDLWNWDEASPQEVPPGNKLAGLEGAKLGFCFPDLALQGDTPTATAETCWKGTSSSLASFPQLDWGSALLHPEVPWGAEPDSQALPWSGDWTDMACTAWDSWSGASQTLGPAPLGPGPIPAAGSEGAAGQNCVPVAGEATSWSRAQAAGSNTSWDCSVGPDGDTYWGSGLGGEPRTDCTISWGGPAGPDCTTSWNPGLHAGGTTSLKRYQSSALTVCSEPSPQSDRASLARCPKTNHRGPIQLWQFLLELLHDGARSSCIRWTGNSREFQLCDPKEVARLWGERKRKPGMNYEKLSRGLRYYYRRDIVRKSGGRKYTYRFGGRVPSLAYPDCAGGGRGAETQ

Experiment [7] has as its target ELF4 (UniProt Q99607).

With TTTGTT, the binding signal stood at 1.26 in experiment [1], 1.25 in experiment [2] and 1.27 in experiment [3].

Regarding GCCACC, the binding signal in experiment [1] came out at 0.846; in experiment [4] it was 0.968; in experiment [5] it was 0.973; in experiment [2] it was 0.873; in experiment [6], 0.838; in experiment [3] it was 0.929.

For TAGCGC, the binding signal in experiment [1] turned out to be 0.908; in experiment [4], 0.956; in experiment [5] it was 0.972; in experiment [2], 0.881; in experiment [6], 0.982; in experiment [3], 0.968.

Regarding GCCATT, the binding signal in experiment [1] turned out to be 0.952; in experiment [4] it was 0.952; in experiment [5], 0.964; in experiment [2], 0.933; in experiment [6] it was 0.995; in experiment [3], 0.955.

Regarding GTCACC, the binding signal in experiment [1] was determined as 0.9; in experiment [4] it was 0.891; in experiment [5] it was 0.837; in experiment [2] it was 0.925; in experiment [6], 0.994; in experiment [3], 0.889.

In the case of CCAATA, the binding signal in experiment [1] was determined as 1.24; in experiment [4] it was 1.25; in experiment [2] it was 1.29; in experiment [6], 1.09.

GCGCCG: the binding signal in experiment [1] came to 0.989; in experiment [4], 0.953; in experiment [5], 0.974; in experiment [2], 0.954; in experiment [6] it was 0.914; in experiment [3], 0.976.

Turning to AATGTG, the binding signal in experiment [1] is 1.04; in experiment [4] it was 0.954; in experiment [5] it was 1; in experiment [2] it was 0.988; in experiment [6], 0.969; in experiment [3], 0.99.

Turning to CGCCAA, the results for the binding signal in experiment [1], in experiment [2] and in experiment [3] were 1.03, 1.02 and 0.996, respectively.

Consider TGAAAG, for which the binding signal came out at 0.973 in experiment [1], 0.942 in experiment [4], 0.925 in experiment [2] and 0.989 in experiment [6].

Take GTGTCC: the binding signal in experiment [1] is 1.03; in experiment [4], 1.08; in experiment [5], 1.13; in experiment [2], 1.16; in experiment [6], 1.19; in experiment [3] it was 0.951.

TCGGCT: the binding signal in experiment [1] came to 0.907; in experiment [5] it was 0.948; in experiment [2], 0.939; in experiment [6], 0.948; in experiment [3], 0.85.

Take CGCCAC: the binding signal in experiment [1] stood at 0.892; in experiment [4], 0.911; in experiment [5] it was 0.961; in experiment [2] it was 0.956; in experiment [6] it was 0.914.

As to TGTATT, the binding signal is 1.38 in experiment [1]; 1.34 in experiment [4]; 1.28 in experiment [5]; 1.33 in experiment [2]; 1.32 in experiment [6].

Take TAATCC: the binding signal in experiment [2] was determined as 1.3; in experiment [7] it was 1.23.

As to GCTCCG, the results for the binding signal in experiment [2] and in experiment [7] were 1.33 and 1.39, respectively.

On to TATCTT, for which the binding signal in experiment [2] was found to be 1.22; in experiment [7], 1.24.

As for GATGTC, the binding signal in experiment [1] was determined as 1.25; in experiment [5] it was 1.37; in experiment [2], 1.37.

As to GTACTA, the binding signal in experiment [1] is 1.16; in experiment [4], 1.14; in experiment [5], 1.1; in experiment [2], 1.14.

On to GCTCCC, for which the binding signal came to 1.37 in experiment [1], 1.28 in experiment [5] and 1.39 in experiment [2].

As to TTCACA, the binding signal in experiment [1] was determined as 1.27; in experiment [4], 1.2; in experiment [5], 1.25; in experiment [2] it was 1.16.

Regarding GAATGC, the binding signal in experiment [1] came out at 0.911; in experiment [4], 0.96; in experiment [5], 0.952; in experiment [2] it was 0.914.

Take TCCCGG: the binding signal in experiment [2] is 2.27; in experiment [7], 2.

Turning to TGCATC, the binding signal in experiment [1] came to 1.35; in experiment [5], 1.35; in experiment [2], 1.39.

Take TGACCC: the binding signal in experiment [2] is 1.41; in experiment [7], 1.48.

TACCCC: the binding signal is 1.14 in experiment [1], 1.09 in experiment [5] and 1.07 in experiment [2].

Regarding AAGAAC, the binding signal was found to be 1.16 in experiment [2] and 1.2 in experiment [7].

For TCGATG, the binding signal in experiment [2] was found to be 1.11; in experiment [7], 1.2.

For the sequence ACTTGT, the binding signal came to 1.27 in experiment [1], 1.45 in experiment [5] and 1.21 in experiment [2].

Consider TTCGAG, for which the binding signal in experiment [2] came to 1.28; in experiment [7] it was 1.29.

For CCATCA, the binding signal worked out at 1.23 in experiment [2] and 1.2 in experiment [7].

Take TGATAG: the binding signal was 0.992 in experiment [2] and 1.03 in experiment [7].

With TAATCA, the figures for the binding signal in experiment [2] and in experiment [7] were 1.18 and 1.11, respectively.

Take AATTAA: the binding signal in experiment [1] was 1.26; in experiment [5], 1.21; in experiment [2], 1.29.

Regarding CTACCA, the binding signal in experiment [1] was determined as 1.27; in experiment [4], 1.22; in experiment [5] it was 1.23; in experiment [2], 1.2.

In the case of ATTAAC, the figures for the binding signal in experiment [2] and in experiment [7] were 1.27 and 1.3, respectively.

In the case of GCATCT, the binding signal is 0.964 in experiment [2] and 0.948 in experiment [7].

Consider TGCCCT, for which the binding signal in experiment [1] was 1.21; in experiment [5], 1.16; in experiment [2] it was 1.11.

Consider TCTGTG, for which the binding signal in experiment [2] is 1.08; in experiment [7] it was 1.2.

As for GTTACT, the binding signal in experiment [2] is 1.28; in experiment [7], 1.18.

In the case of ACGCGC, the binding signal in experiment [1] came to 0.999; in experiment [5], 0.986; in experiment [2], 0.977.

Turning to CCATGG, the binding signal was determined as 1.08 in experiment [1], 1.06 in experiment [4], 0.906 in experiment [5] and 0.986 in experiment [2].

AAAGAT: the results for the binding signal in experiment [1], in experiment [5] and in experiment [2] were 1.18, 1.3 and 1.25, respectively.

For the sequence AATACC, the binding signal came out at 1.25 in experiment [1], 1.19 in experiment [4], 1.16 in experiment [5] and 1.13 in experiment [2].

CTTAAG: the binding signal in experiment [2] worked out at 0.973; in experiment [7] it was 1.07.

Regarding ACCCGA, the binding signal in experiment [2] came to 1.08; in experiment [7] it was 1.03.

Consider ATGTGC, for which the binding signal in experiment [2] was 1.16; in experiment [7], 1.17.

ATATTC: the binding signal in experiment [2] turned out to be 1.27; in experiment [7], 1.29.

On to CTACGG, for which the binding signal in experiment [1] came out at 1.19; in experiment [5] it was 1.28; in experiment [2], 1.21.

For GAACTT, the binding signal in experiment [2] came out at 1.66; in experiment [7] it was 1.52.

In the case of GCACTA, the binding signal was determined as 1.13 in experiment [2] and 1.27 in experiment [7].

Take ACTCAA: the binding signal in experiment [2] and in experiment [7] was 1.16 in each case.

For GTTTTA, the binding signal turned out to be 1.17 in experiment [1], 1.16 in experiment [5] and 1.07 in experiment [2].

GAATGT: the binding signal in experiment [2] and in experiment [7] was 1.07 each time.

For CAGCGC, the results for the binding signal in experiment [2], in experiment [7] and in experiment [6] were 0.997, 0.942 and 1.07, respectively.
